# Measured values from PubChem BioAssay (Tox21).
# Chains of the proteins cited; added tags and fusions are not shown. Lines headed by an entry give the natural chain unless they say otherwise; changes in a name come on top.
# UniProt P28223, whole entry, looked up: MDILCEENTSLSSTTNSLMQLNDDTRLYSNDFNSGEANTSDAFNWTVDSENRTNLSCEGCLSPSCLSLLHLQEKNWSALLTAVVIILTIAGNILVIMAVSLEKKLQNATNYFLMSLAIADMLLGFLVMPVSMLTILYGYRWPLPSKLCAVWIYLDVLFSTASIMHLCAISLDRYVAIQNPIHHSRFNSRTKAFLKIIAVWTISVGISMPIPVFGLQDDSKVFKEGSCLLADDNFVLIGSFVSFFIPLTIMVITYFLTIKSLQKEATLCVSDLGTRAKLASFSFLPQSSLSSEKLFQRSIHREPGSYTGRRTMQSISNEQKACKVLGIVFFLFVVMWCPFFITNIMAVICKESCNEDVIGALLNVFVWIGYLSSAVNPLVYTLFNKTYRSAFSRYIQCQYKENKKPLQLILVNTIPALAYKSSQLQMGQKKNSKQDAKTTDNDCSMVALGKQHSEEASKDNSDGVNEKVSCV
# UniProt P14416, whole entry, looked up: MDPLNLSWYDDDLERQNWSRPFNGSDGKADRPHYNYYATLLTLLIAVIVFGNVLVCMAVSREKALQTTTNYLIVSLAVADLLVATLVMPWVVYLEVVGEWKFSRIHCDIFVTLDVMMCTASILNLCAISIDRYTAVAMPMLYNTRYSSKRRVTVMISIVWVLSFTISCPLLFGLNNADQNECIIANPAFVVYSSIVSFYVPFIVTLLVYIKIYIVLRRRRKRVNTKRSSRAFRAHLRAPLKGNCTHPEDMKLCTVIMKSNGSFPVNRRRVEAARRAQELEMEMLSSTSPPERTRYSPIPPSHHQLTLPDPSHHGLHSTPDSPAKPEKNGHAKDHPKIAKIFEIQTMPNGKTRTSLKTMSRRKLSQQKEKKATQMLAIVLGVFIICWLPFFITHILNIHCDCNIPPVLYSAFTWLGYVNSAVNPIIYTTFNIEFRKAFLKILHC
# UniProt P11229: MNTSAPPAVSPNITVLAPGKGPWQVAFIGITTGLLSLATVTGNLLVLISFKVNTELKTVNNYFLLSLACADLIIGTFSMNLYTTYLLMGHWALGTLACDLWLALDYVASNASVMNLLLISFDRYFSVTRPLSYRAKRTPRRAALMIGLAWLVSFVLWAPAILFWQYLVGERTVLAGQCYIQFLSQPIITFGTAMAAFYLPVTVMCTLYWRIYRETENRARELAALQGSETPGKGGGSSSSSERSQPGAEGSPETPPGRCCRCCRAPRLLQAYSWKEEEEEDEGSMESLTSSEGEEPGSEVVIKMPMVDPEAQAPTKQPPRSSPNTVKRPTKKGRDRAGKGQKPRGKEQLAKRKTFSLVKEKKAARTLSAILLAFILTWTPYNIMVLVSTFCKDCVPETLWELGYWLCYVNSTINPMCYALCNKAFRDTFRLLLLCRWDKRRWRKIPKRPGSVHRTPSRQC
# This list was built around the results that the source calls inconclusive (neither active nor inactive); the mix of calls is not that of the screen. For some assays here: A potency beside an inconclusive call is a rough fit, not a confirmed value. Calls of active or inactive are those of the source. Unless noted, calls come from the whole dose curve.
# Columns and labels:
# [1] = Nuclear factor erythroid 2-related factor 2/antioxidant responsive element (Nrf2/ARE) small molecule agonists: luciferase reporter gene qHTS assay in human keratinocytes (AID 1919969); settings: KeratinoSens HaCaT ARE-luciferase, luminescence, 24 h; activity, positive = activation: at 92.4 µM (top of the series); note: nearly all actives have a fitted effect of over 35% in size; note: potency is the fitted concentration of half-maximal effect
# [2] = p53 small molecule agonists, cell-based qHTS assay with rat liver microsomes (AID 1963578); settings: HCT-116 p53RE-bla, beta-lactamase ratio, 16 h; activation: at 66 µM (top of the series) unless noted; note: % is set by controls: 0 for no effect and ±100 for the full control effect
# Summary of the method: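 Metabolic activation is supplied by rat liver microsomes with NADPH (each 0.5 mg/mL final). p53RE-bla cells incubate with compound 16 h at 37 C; reporter activity is measured by LiveBLAzer fluorescence.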
# [3] = target: 5-hydroxytryptamine receptor 2A (Homo sapiens) (UniProt P28223); test: 5-hydroxytryptamine receptor 2A (HTR2A) small molecule antagonists, cell-based qHTS assay (AID 1963586); note: potency is the fitted concentration of half-maximal effect; nearly all actives have a fitted effect of over 45% in size
# Summary of the method: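 Antagonist-mode intracellular calcium assay: DOI (4 nM) added after 5 min compound pre-incubation at room temperature to dye-loaded HTR2A-CHO cells. Fluorescence followed for 3 min, sampled every second.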
# [4] = p53 small molecule agonists, cell-based qHTS assay with human liver microsomes: qHTS cell viability counter screen (AID 1963579); note: nearly all actives have a fitted effect of over 45% in size; note: potency is the fitted concentration of half-maximal effect
# Summary of the method: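 After the 460/530 nm beta-lactamase read, CellTiter-Glo was added to the same wells and luminescence measured after 30 min at room temperature, giving viability of p53RE-bla cells treated 16 h with compounds plus microsomes and NADPH.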
# [5] = p53 small molecule agonists, cell-based qHTS assay: qHTS cell viability counter screen (AID 1963581); note: potency is the fitted concentration of half-maximal effect; nearly all actives have a fitted effect of over 45% in size
# Summary of the method: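 In the same plates used for the p53 bla reporter, HCT-116 cells given compounds for 16 h at 37 C received CellTiter-Glo; luminescence was recorded 30 min later at room temperature.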
# [6] = cAMP Responsive Elements (CRE) small molecule agonists, cell-based qHTS assay (AID 1963590); settings: CRE-bla HEK293T, beta-lactamase FRET ratio, 3 h; activation: at 92.4 µM (top of the series) unless noted; note: potency is the fitted concentration of half-maximal effect
# Summary of the method: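 Cell line: CRE-bla HEK 293T; medium DMEM/10% dialyzed FBS/0.1 mM NEAA/1 mM pyruvate/25 mM HEPES; 3 h compound exposure; beta-lactamase FRET readout after 2 h substrate loading at RT.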
# [7] = cAMP Responsive Elements (CRE) small molecule antagonists, cell-based qHTS assay (AID 1963591; active = well fitted inhibition curve with a large enough effect in the signal ratio in the repeat runs, not every such curve was filed as active; inconclusive = weak or mixed curves, or effect the other way; the % refers to the signal ratio; note: potency is the fitted concentration of half-maximal effect; for activity change, negative = inhibition: % is set by controls: 0 for no effect and ±100 for the full control effect); settings: CRE-bla HEK293T, beta-lactamase FRET ratio; activity change, negative = inhibition: at 92.4 µM (top of the series) unless noted
# Summary of the method: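 Inhibition of NKH477-driven (0.25 uM final) CRE-beta-lactamase signal in HEK293T cells, 3 h compound exposure at 37 °C, detected by FRET substrate fluorescence.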
# [8] = target: Beta-2 adrenergic receptor (Homo sapiens) (UniProt P07550); test: Adrenergic beta2 receptor (ADRB2) small molecule agonists, cell-based qHTS assay (AID 1963593); settings: CHO-ADRB2 cells, cAMP HTRF, 30 min; note: potency is the fitted concentration of half-maximal effect;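 for activation: CHO cells stably overexpressing human ADRB2; % is set by controls: 0 for no effect and ±100 for the full control effect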
# Summary of the method: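 CHO cells stably over-expressing ADRB2 were plated overnight at 37C, then dosed with compounds plus a stimulation mix containing 100uM IBMX and 25uM Ro-20-1724 for 0.5hr at room temperature. cAMP was measured by HTRF competition, 1hr.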
# [9] = target: D(2) dopamine receptor (Homo sapiens) (UniProt P14416); test: Dopamine D2 receptor (DRD2) small molecule agonists, cell-based qHTS assay (AID 1963594); settings: HEK293-DRD2 cAMP HTRF, agonist mode, 30 min; activation: at 92.4 µM (top of the series) unless noted; note: nearly all actives have a fitted effect of over 35% in size; note: potency is the fitted concentration of half-maximal effect
# Summary of the method: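 HEK293 cells stably expressing DRD2 were cultured 24 h at 37 C, then given Ro20-1724 (0.1 mM final) and compounds for 10 min at room temperature. NKH477 (200nM) was then added for 30 min. cAMP was read by HTRF.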
# [10] = p53 small molecule agonists, cell-based qHTS assay with rat liver microsomes: qHTS cell viability counter screen (AID 1963580); note: potency is the fitted concentration of half-maximal effect; nearly all actives have a fitted effect of over 45% in size
# Summary of the method: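 In HCT-116 cells carrying a p53 response element-bla reporter, compounds were metabolically activated in situ by rat liver microsomes with NADPH over 16 h. Cell ATP content then served as the cytotoxicity measure.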
# [11] = target: D(2) dopamine receptor (Homo sapiens) (UniProt P14416); test: Dopamine D2 receptor (DRD2) small molecule antagonists, cell-based qHTS assay (AID 1963595; active = well fitted inhibition curve with a large enough effect in the signal ratio in the repeat runs, with a control signal flat; inconclusive = weak or mixed curves, or effect the other way; the % refers to the signal ratio; note: potency is the fitted concentration of half-maximal effect; for activity change, negative = inhibition: % is set by controls: 0 for no effect and ±100 for the full control effect); settings: HEK293-DRD2 cAMP HTRF antagonist mode; activity change, negative = inhibition: at 92.4 µM (top of the series) unless noted
# Summary of the method: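 Cells were plated and grown for 24 h at 37 °C. Ro20-1724 (0.1 mM final) went in first, then compound for 10 min. NKH477 (200 nM) with quinpirole (12 nM) followed for 30 min at RT, then HTRF detection reagents for 1 h.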
# [12] = p53 small molecule agonists, cell-based qHTS assay (AID 1963582; active = well fitted activation curve with a large enough effect in the signal ratio in the repeat runs, not every such curve was filed as active; inconclusive = weak or mixed curves; the % refers to the signal ratio; note: potency is the fitted concentration of half-maximal effect); settings: HCT-116 p53RE-bla reporter, beta-lactamase FRET ratio, 16 h; activation: at 66 µM (top of the series) unless noted
# Summary of the method: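 Compounds are pin-transferred in DMSO onto p53RE-bla cells and incubated 16 h at 37 C. The B/G FRET beta-lactamase substrate is then applied for 2 h at RT and fluorescence recorded.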
# [13] = target: Beta-2 adrenergic receptor (Homo sapiens) (UniProt P07550); test: Adrenergic beta2 receptor (ADRB2) small molecule antagonists, cell-based qHTS assay (AID 1963592); settings: CHO-ADRB2 cells, isoproterenol-stimulated cAMP HTRF ratio, 0.5 h; activity change, negative = inhibition: at 92.4 µM (top of the series) unless noted; note: % is set by controls: 0 for no effect and ±100 for the full control effect; nearly all actives have a fitted effect of over 50% in size
# Summary of the method: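 Cells (CHO, stable ADRB2 overexpression) incubated 18-20hr at 37C; compounds added from DMSO; agonist mix (1nM isoproterenol, 100uM IBMX, 25uM Ro-20-1724) added; 0.5hr RT; d2-cAMP and anti-cAMP-cryptate added; 1hr RT; 665/615 nm read.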
# [14] = target: Muscarinic acetylcholine receptor M1 (Homo sapiens) (UniProt P11229); test: Cholinergic receptor muscarinic 1 (CHRM1) small molecule antagonists, cell-based qHTS assay (AID 1963588); note: % is set by controls: 0 for no effect and ±100 for the full control effect; nearly all actives have a fitted effect of over 40% in size
# Summary of the method: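 CHRM1-CHO calcium-flux assay, antagonist mode. Cells were seeded 18 h, dye-loaded 1 h at 37 C and given compound for 5 min at RT, then acetylcholine was added at 50nM. FDSS fluorescence was read 3 min; 15 concentrations, three runs.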
# [15] = activation: at 92.4 µM (top of the series) unless noted
structure (smiles),measurement,setting,value
FC(F)(F)C(Cl)Br (centres undefined),Potency,[1],"inconclusive: 0.106 µM [activator, single point]"
same,Potency,[2],inactive
same,Potency,[3],"inconclusive: 18.3 µM [inhibitor, partial curve, poor fit]"
NC(=O)N(O)[C@@H]1COc2cc(OCc3ccccc3)ccc21,Potency,[1],inconclusive: 9.69 µM [activator]
same,Potency,[4],inactive
same,Potency,[5],"inconclusive: 18.2 µM [rising, single point]"
same,Potency,[6],"inconclusive: 27.3 µM [rising, partial curve, poor fit]"
same,Potency,[7],"inconclusive: 19.3 µM [fluorescent, full curve, poor fit]"
same,Potency,[8]; [15],inactive
same,Potency,[9],"inconclusive: 17.2 µM [rising, full curve, poor fit]"
CCCCCCCCCC[N+](C)(CCCCCCCCCC)CCC[Si](OC)(OC)OC,Potency,[1],"inconclusive: 6.11 µM [activator, single point]"
same,Potency,[4],active: 36.3 µM
same,Potency,[10],"inconclusive: 51.3 µM [cytotoxic, single point]"
same,Potency,[6],"inconclusive: 17.2 µM [activator, full curve]"
same,"activity change, negative = inhibition",[7],inconclusive: 18.3%
same,activation,[8]; [15],inconclusive: 38%
same,Potency,[11],"inconclusive: 27.3 µM [inhibitor, single point]"
C=C1CC[C@H](O)C/C1=C\C=C1/CCC[C@]2(C)[C@@H]([C@H](C)CCCC(C)C)CC[C@@H]12,Potency,[1],active: 21.5 µM
same,Potency,[4],inactive
same,Potency,[12],"inconclusive: 14.3 µM [fluorescent, partial curve]"
same,Potency,[6],"inconclusive: 54 µM [rising, partial curve]"
same,Potency,[8]; [15],inactive
same,Potency,[11],inactive
CC(CC=O)c1ccccc1 (centres undefined),Potency,[1],"inconclusive: 68.6 µM [activator, single point]"
same,Potency,[4],"inconclusive: 51.3 µM [cytotoxic, single point]"
same,Potency,[13],inactive
C=C[Si]1(C)O[Si](C)(C=C)O[Si](C)(C=C)O[Si](C)(C=C)O1 (centres undefined),Potency,[1],"inconclusive: 68.6 µM [activator, partial curve, poor fit]"
same,Potency,[4],"inconclusive: 32.4 µM [cytotoxic, partial curve, poor fit]"
same,activation,[8]; [15],inconclusive: 5%
O=C(c1ccccc1)c1cc(Cl)ccc1O,Potency,[1],"inconclusive: 65.1 µM [activator, partial curve, poor fit]"
same,Potency,[4],"inconclusive: 48.7 µM [cytotoxic, single point]"
same,Potency,[6],inconclusive: 65.1 µM
same,Potency,[7],active: 41.1 µM
same,Potency,[8]; [15],"inconclusive: 0.82 µM [inhibitor, single point]"
same,Potency,[9],inactive
C1CSCCS1,Potency,[1],inactive
same,Potency,[4],inactive
same,Potency,[14],inactive
Cc1ccc(C(C)(C)C)cc1,Potency,[1],"inconclusive: 27.5 µM [activator, single point]"
same,Potency,[4],"inconclusive: 1.82 µM [cytotoxic, single point]"
same,Potency,[13],inactive
same,activation,[8]; [15],inconclusive: 17.9%
same,activation,[8]; at 92.4 µM (top of the series),inactive: -19.5%
CCCCCOC(=O)c1ccc(O)cc1,Potency,[1],"inconclusive: 19.6 µM [activator, partial curve, poor fit]"
same,Potency,[4],"inconclusive: 41.3 µM [cytotoxic, partial curve, poor fit]"
same,Potency,[3],active: 9.54 µM
same,Potency,[6],"inconclusive: 69.4 µM [rising, single point]"
same,Potency,[7],inconclusive: 61.9 µM [inhibitor]
same,Potency,[8]; [15],inactive
c1cnc(N2CCN(Cc3ccc4c(c3)OCO4)CC2)nc1,Potency,[1],"inconclusive: 0.0531 µM [activator, single point]"
same,Potency,[4],"inconclusive: 1.99 µM [cytotoxic, single point]"
same,Potency,[6],inactive
same,activation,[8]; [15],inconclusive: 16.7% [at 42.5 µM]
same,Potency,[9],inconclusive: 0.266 µM
O=C(c1ccccc1)C1CCCCC1,Potency,[1],"inconclusive: 68.6 µM [activator, partial curve, poor fit]"
same,Potency,[4],inactive
same,activation,[8]; [15],inconclusive: 3.92%
CCC(=O)Oc1ccc(/C(CC)=C(\CC)c2ccc(OC(=O)CC)cc2)cc1,Potency,[1],"inconclusive: 68.6 µM [activator, single point]"
same,Potency,[4],"inconclusive: 45.8 µM [cytotoxic, single point]"
same,activation,[12],inconclusive: 0.237%
same,Potency,[8]; [15],"inconclusive: 27.3 µM [inhibitor, single point]"
CCSCC,Potency,[1],active: 72.5 µM
same,Potency,[4],active: 19.3 µM
same,Potency,[7],inactive
same,activation,[8]; [15],inconclusive: -17.5%
Cc1c(C(=O)O)cccc1[N+](=O)[O-],Potency,[1],inconclusive: 69.7 µM [activator]
same,Potency,[4],active: 23.3 µM
same,activation,[8]; [15],inconclusive: -0.953%
O=C(NOCC1CC1)c1ccc(F)c(F)c1Nc1ccc(I)cc1Cl,Potency,[1],inconclusive: 33.5 µM [activator]
same,Potency,[4],inactive
same,Potency,[12],active: 19.9 µM
same,Potency,[6],"inconclusive: 33.5 µM [rising, single point]"
same,"activity change, negative = inhibition",[7],inconclusive: -30.8% [at 42.4 µM]
same,Potency,[8]; [15],"inconclusive: 33.5 µM [inhibitor, single point]"

# 5 entries from above, bar-delimited:
structure (smiles) | measurement | setting | value
CCCCCOC(=O)c1ccc(O)cc1 | Potency | [6] | inconclusive: 69.4 µM [rising, single point]
same | Potency | [7] | inconclusive: 61.9 µM [inhibitor]
same | Potency | [8]; [15] | inactive
c1cnc(N2CCN(Cc3ccc4c(c3)OCO4)CC2)nc1 | Potency | [1] | inconclusive: 0.0531 µM [activator, single point]
same | Potency | [4] | inconclusive: 1.99 µM [cytotoxic, single point]
